Amino acid sequences for entries named in this document (tags omitted). Residues count along the entry.
UniProt P51858, 1-100: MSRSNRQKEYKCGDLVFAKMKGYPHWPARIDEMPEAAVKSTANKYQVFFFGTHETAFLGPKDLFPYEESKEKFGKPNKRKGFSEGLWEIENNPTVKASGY
UniProt P0A7G6, 2-353: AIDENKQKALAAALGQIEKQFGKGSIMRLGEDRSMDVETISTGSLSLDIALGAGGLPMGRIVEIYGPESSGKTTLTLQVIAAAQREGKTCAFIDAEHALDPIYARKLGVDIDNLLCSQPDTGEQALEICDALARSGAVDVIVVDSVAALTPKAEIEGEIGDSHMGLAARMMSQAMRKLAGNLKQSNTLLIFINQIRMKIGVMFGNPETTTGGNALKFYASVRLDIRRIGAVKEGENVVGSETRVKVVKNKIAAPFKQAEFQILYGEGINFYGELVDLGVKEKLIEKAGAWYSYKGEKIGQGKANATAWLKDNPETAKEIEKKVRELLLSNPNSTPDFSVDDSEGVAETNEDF

According to article PMC11331505:

Columns and labels:
HDGF PWWP domain (human) = HDGF PWWP domain (human) (UniProt P51858); assay: PIFQ (Cy3 fluorescence quenching); settings: 1 nM DNA, approximation model; HDGF assays: 46 mM NaCl, 0.9 mM KCl, 3.3 mM Na2HPO4, 0.66 mM KH2PO4, pH 7.4; at least 1 h on ice; 1-10 nM Cy3 DNA, 10 pM-100 nM protein; RecA dsDNA control at pH 7.5; recombinant protein; residues 1-100; label: Cy3; single-stranded DNA
HDGF (human) = HDGF (human) (UniProt P51858); assay: PIFQ (Cy3 fluorescence quenching); settings: 1 nM DNA, N.D.; HDGF assays: 46 mM NaCl, 0.9 mM KCl, 3.3 mM Na2HPO4, 0.66 mM KH2PO4, pH 7.4; at least 1 h on ice; 1-10 nM Cy3 DNA, 10 pM-100 nM protein; RecA dsDNA control at pH 7.5; recombinant protein; residues 1-240; label: Cy3; single-stranded DNA
E. coli RecA (E. coli) = E. coli RecA (E. coli) (UniProt P0A7G6); assay: PIFE (Cy3 fluorescence enhancement); settings: 1 nM DNA, no detectable change at pH 7.5; HDGF assays: 46 mM NaCl, 0.9 mM KCl, 3.3 mM Na2HPO4, 0.66 mM KH2PO4, pH 7.4; at least 1 h on ice; 1-10 nM Cy3 DNA, 10 pM-100 nM protein; RecA dsDNA control at pH 7.5; label: Cy3
[1] = tested on: HDGF PWWP domain + HDGF C140 domain; assay: PIFQ (Cy3 fluorescence quenching); settings: 1 nM DNA, premixed, minimal decrease, attributed to PWWP nonspecific binding; HDGF assays: 46 mM NaCl, 0.9 mM KCl, 3.3 mM Na2HPO4, 0.66 mM KH2PO4, pH 7.4; at least 1 h on ice; 1-10 nM Cy3 DNA, 10 pM-100 nM protein; RecA dsDNA control at pH 7.5; recombinant protein; label: 5' Cy3

TTCAAGACCAGCCTG [15 nt SMYD1 ssDNA]
Kd (HDGF PWWP domain (human)): 16 nM
binding result (HDGF (human)): no binding

TTTTTTTTTTTTTTTTTTTTTTTTTTTTTTTTTTTTTTTT (double strand) [poly(T-A)40 dsDNA]
binding result (E. coli RecA (E. coli)): no binding

TTTTTTTTTTTTTTT (double strand) [poly(T-A)15 dsDNA]
binding result [1]: binds more weakly

For some of these results: Negatives hold for the conditions tested. For some of these results: Weaker means in comparison with the reference protein, sequence or condition of that experiment. For some of these results: For at least one entry, the source does not settle the construct or the ends of the probe.
